Reference: publication doi:10.1101/2023.03.22.533821
These are yes or no findings as the source states them, for the method shown. In cells and extracts the contact can be indirect. Some binding calls cover weakened binding; strength is not graded here.

Molecular target: T1, phosphorylated activating transcription factor 2 (human (endogenous in H1299)), P15336
T1 chain: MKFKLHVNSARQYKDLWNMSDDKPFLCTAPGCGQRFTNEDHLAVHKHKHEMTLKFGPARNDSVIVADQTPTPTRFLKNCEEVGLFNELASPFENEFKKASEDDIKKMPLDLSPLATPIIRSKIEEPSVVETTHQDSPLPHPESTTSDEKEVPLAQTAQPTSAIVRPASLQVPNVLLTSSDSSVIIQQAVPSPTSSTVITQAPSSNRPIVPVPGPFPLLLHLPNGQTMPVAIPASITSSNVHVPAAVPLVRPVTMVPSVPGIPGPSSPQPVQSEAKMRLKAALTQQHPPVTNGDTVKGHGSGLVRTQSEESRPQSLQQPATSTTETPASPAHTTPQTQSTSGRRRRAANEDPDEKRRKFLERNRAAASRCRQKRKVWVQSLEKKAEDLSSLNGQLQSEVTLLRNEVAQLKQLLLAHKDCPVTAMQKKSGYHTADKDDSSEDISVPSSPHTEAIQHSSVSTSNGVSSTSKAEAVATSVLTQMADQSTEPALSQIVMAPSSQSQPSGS
Assay: co-IP
Settings: remark: other sources report otherwise

binding: binds
B1: phosphorylated c-Jun, P05412 1-331 (protein)
chain: MTAKMETTFYDDALNASFLPSESGPYGYSNPKILKQSMTLNLADPVGSLKPHLRAKNSDLLTSPDVGLLKLASPELERLIIQSSNGHITTTPTPTQFLCPKNVTDEQEGFAEGFVRALAELHSQNTLPSVTSAAQPVNGAGMVAPAVASVAGGSGSGGFSASLHSEPPVYANLSNFNPGALSSGGGAPSYGAAGLAFPAQPQQQQQPPHHLPQQMPVQHPRLQALKEEPQTVPEMPGETPPLSPIDMESQERIKAERKRMRNRIAASKCRKRKLERIARLEEKVKTLKAQNSELASTANMLREQVAQLKQKVMNHVNSGCQLMLTQQLQTF
modifications: here or on the partner: phosphorylated (p-c-Jun); residues not stated; phosphorylated (p-ATF2); residues not stated
